Out of some 320,000 compounds screened, about 2,100 (0.66%) were called active. The shares of active, inactive and inconclusive entries below differ from those in the screen. Calls come from the whole dose curve; as a rule, active = well fitted inhibition curve with a large enough effect in the signal ratio, with a control signal flat (not every such curve was filed as active); inconclusive = small, poorly fitted or top-dose-only effect, or effect the other way, or a change in a side signal; inactive = flat fitted curve, though single readings scatter; the % refers to the signal ratio. Where the call is inconclusive, the potency comes from a doubtful curve fit.
Test: qHTS Assay for Lipid Storage Modulators in Drosophila S3 Cells
Settings: BODIPY lipid droplet fluorescence, 18-24 h, cells fed with added oleic acid; lipid storage change, negative = inhibition: at 46.1 µM (top of the series) unless noted
Summary of the method: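 Laser-scanning cytometry quantifies lipid droplet accumulation (500–530 nm total intensity; droplet/cell object ratio) in oleic acid-fed (400 uM added) Drosophila S3 cells treated with a concentration series. 20 uM Triacsin C defined 100% inhibition.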
For `Cc1cc(NC(=O)C(C)SCC(=O)OCC(=O)Nc2c(C)cccc2C(C)C)no1` (stereo not drawn), the lipid storage change, negative = inhibition was inconclusive: 10.7%.
In the case of `COCCNC(=S)N1CCN(c2nc(-c3ccc(Cl)cc3)cs2)CC1`, the Potency was inconclusive: 29.1 µM [falling, single point].
In the case of `CCOc1ccc(S(=O)(=O)N2CCCC(C(=O)NCCN3CCOCC3)C2)cc1Cl` (stereo not drawn), the lipid storage change, negative = inhibition was inconclusive: 3.69%.
In the case of `S=C(NCc1ccc(Cl)cc1Cl)Nc1ccccc1`, the lipid storage change, negative = inhibition was inconclusive: -1.88%.
In the case of `Cc1ccc(NC(=S)NCc2cccn2C)cc1`, the lipid storage change, negative = inhibition was inconclusive: 33.7%.
With `COC(=O)c1cc(NC(=O)C2CC(=O)NC(=NCc3ccc(OC)cc3)S2)cc(C(=O)OC)c1` (stereo not drawn) the lipid storage change, negative = inhibition was inconclusive: 25.8%.
With `CCOc1ccc(/C(C)=N\NC(=O)Cc2ccccc2)cc1` the Potency was inconclusive: 29.1 µM [falling, single point].
With `Cc1nc(-c2ccc(S(=O)(=O)Nc3cc(S(=O)(=O)N(C)C)ccc3C)s2)cs1` the lipid storage change, negative = inhibition was “inactive”.
With `COc1ccc(CCNC(=O)CSc2ccc(-c3cccs3)nn2)cc1OC` the lipid storage change, negative = inhibition was inconclusive: -20.5%.
With `CCOc1ccccc1OCC(=O)OCC(=O)Nc1ncc(Cl)cc1Cl` the lipid storage change, negative = inhibition was inconclusive: 84.3%.
In the case of `CN1CCN(Cc2ccc(-c3ccc(Cl)cc3)o2)CC1`, the Potency was inconclusive: 0.082 µM [falling, full curve, poor fit].
In the case of `N#Cc1ccc(OCCOCCNC2CCCC2)cc1`, the lipid storage change, negative = inhibition was inconclusive: -55.1%.
With `Cc1ccc(C)c(N(CC(=O)NC2CCCCC2)C(=O)CNC(=O)c2ccco2)c1` the lipid storage change, negative = inhibition was inconclusive: 48.7%.
In the case of `Cc1ccccc1/C=N/NC(=O)c1ccc(-n2cnnn2)cc1`, the Potency was inconclusive: 0.58 µM [rising, full curve].
For `O=C(COC(=O)C1CCCN1C(=O)c1cccs1)c1ccccc1` (stereo not drawn), the Potency was inconclusive: 3.26 µM [activator, partial curve].
In the case of `Cc1ccc(NC(=O)CN(c2ccc(C)cc2)S(=O)(=O)c2cccc3nonc23)cc1`, the lipid storage change, negative = inhibition was inconclusive: -0.995%.
For `COc1cccc(CNC(=O)c2cc(C)nc3ccccc23)c1`, the Potency was inconclusive: 25.9 µM [activator, single point].
In the case of `CCCn1c(SCC(=O)NC2CCCC2)nnc1C(C)C`, the Potency was inconclusive: 9.2 µM [activator, partial curve].
For `CC1(C)C2CCC1(CS(=O)(=O)NCCc1c[nH]c3ccccc13)C(=O)C2` (stereo not drawn), the Potency was inconclusive: 11.6 µM [activator, single point].
For `CCOC(=O)C1CCN(Cc2cc(=O)n3c(-c4ccccc4)csc3n2)CC1`, the lipid storage change, negative = inhibition was inconclusive: -8.26%.
With `Cc1ccc(Nc2nnc(SCc3cc(=O)n4cc(C)ccc4n3)s2)cc1` the Potency was inconclusive: 2.91 µM [rising, partial curve].
In the case of `O=C(NNC(=O)C12CC3CC(CC(C3)C1)C2)c1ccccn1`, the Potency was inconclusive: 29.1 µM [falling, single point].
In the case of `O=C(CSc1nnc(-c2cccnc2)n1-c1ccccc1)Nc1ccccn1`, the Potency was inconclusive: 1.16 µM [activator, full curve].
In the case of `O=C(N=C1SC2CS(=O)(=O)CC2N1c1cccc(Cl)c1)C1CCCO1` (stereo not drawn), the lipid storage change, negative = inhibition was inconclusive: -3.28%.
With `Cc1cc2c3c(ccc(C)c3n1)N=CN2c1ccccc1` the lipid storage change, negative = inhibition was “inactive”.
For `O=C1c2cccc3cccc(c23)C(=O)N1c1ccccn1`, the lipid storage change, negative = inhibition was inconclusive: 0.35%.
For `O=C1CC(c2cccnc2)c2cc3c(cc2N1)OCO3` (stereo not drawn), the Potency was inconclusive: 0.146 µM [activator, full curve, poor fit].
With `CCC(C)C(=O)Nc1nc(C)c(-c2csc(Nc3cc(Cl)ccc3OC)n2)s1` (stereo not drawn) the lipid storage change, negative = inhibition was inconclusive: -15%.
In the case of `O=S(=O)(c1ccc(F)cc1)c1snnc1-c1ccccc1`, the lipid storage change, negative = inhibition was inconclusive: -4.6%.
With `Cc1ccc(OC(C)C)c(CN(CCO)CCO)c1` the Potency was inconclusive: 4.11 µM [falling, single point].
For `Cc1c(C(=O)N2CCOCC2)oc2ccc(S(=O)(=O)N3CCCCCC3)cc12`, the Potency was inconclusive: 1.3 µM [activator, full curve].
For `COc1ccc(OC)c(/C=C2\SC(N3CCCCC3)=NC2=O)c1`, the Potency was inconclusive: 0.731 µM [activator, single point].
For `COc1cnn(-c2ccccc2)c(=O)c1N(C)C`, the Potency was inconclusive: 0.0291 µM [falling, full curve].
With `O=C(COc1ccc(Br)cc1)Nc1nnc(C2CC2)s1` the lipid storage change, negative = inhibition was inconclusive: 8.19%.
In the case of `Cc1cccc(N2C(=O)N3[C@H](c4ccc(F)cc4)[C@@H]4C(=O)N(C5CCCCC5)C(=O)[C@@H]4[C@]3(Cc3ccc(Cl)cc3)C2=O)c1`, the Potency was inconclusive: 4.61 µM [falling, single point].
With `CCc1cccc(NS(=O)(=O)c2ccc3c(c2)NC(=O)CC(=O)N3)c1` the lipid storage change, negative = inhibition was inconclusive: -1.25%.
With `CCOC(=O)c1ccc(NC(=S)N2CCSC2c2ccc(Cl)cc2)cc1` (stereo not drawn) the Potency was inconclusive: 0.517 µM [activator, full curve, poor fit].
For `CCOC(=O)N1CCN(C(=O)CN(c2cccc(C)c2)S(=O)(=O)c2ccc(C)cc2)CC1`, the Potency was active: 5.8 µM.
In the case of `O=C(NC1CCCC1)c1cc(COc2ccc3ncccc3c2)on1`, the Potency was inconclusive: 29.1 µM [falling, single point].
With `COc1cc(C(C)=O)ccc1Oc1ccc(S(=O)(=O)N2CCOCC2)cn1` the lipid storage change, negative = inhibition was inconclusive: -33.3%.
With `CCOc1ccc(Cn2nnc(C(=O)Nc3cc(C)cc(C)c3)c2N)cc1` the Potency was inconclusive: 2.06 µM [activator, single point].
For `COc1ccc(CN2Cc3cccc4c3[C@@H](CC2=O)[C@H](O)[C@H](O)C4)cc1`, the Potency was inconclusive: 5.8 µM [activator, full curve].
In the case of `O=C(CSc1nnc(Cc2ccccc2)o1)N1CCCC1`, the lipid storage change, negative = inhibition was inconclusive: 16.2%.
With `Cc1nn(-c2ccc(N3CCCCC3)nn2)c(C)c1CCC(=O)Nc1ccc(F)c(F)c1` the Potency was inconclusive: 8.2 µM [falling, partial curve, poor fit].
For `CCOC(=O)Cn1c(=O)oc2cc(S(=O)(=O)NCCc3ccc(OCC)c(OCC)c3)ccc21`, the lipid storage change, negative = inhibition was inconclusive: 26.4%.
For `CCC(C)c1ccc(C2C3=C(Nc4nc(N)[nH]c(=O)c42)c2ccccc2C3=O)cc1` (stereo not drawn), the lipid storage change, negative = inhibition was inconclusive: -36.6%.
For `COc1ccc(N/N=C(/Oc2ccc([N+](=O)[O-])cc2)C(C)=O)cc1`, the Potency was inconclusive: 20.6 µM [cytotoxic, single point].
For `O=C1CSC(c2ccccc2)N1CCc1ccccc1` (stereo not drawn), the Potency was inconclusive: 2.91 µM [activator, full curve].
With `COc1ccc(NC(=O)c2cccc(S(=O)(=O)NCc3ccco3)c2)c(OC)c1` the lipid storage change, negative = inhibition was inconclusive: 29.9%.
In the case of `CC/C(=C\C(=O)c1ccncc1)Nc1ccc(O)cc1`, the lipid storage change, negative = inhibition was inconclusive: 22.4%.
With `CCOc1ccc(OCC)c(NC(=O)C2CCCN(S(=O)(=O)c3ccc(C)cc3)C2)c1` (stereo not drawn) the Potency was inconclusive: 3.66 µM [activator, full curve, poor fit].
For `O=C(Nc1ccc(Cl)cn1)c1cccnc1`, the lipid storage change, negative = inhibition was inconclusive: 21%.
For `Cc1ccc(NC(=O)C2C3CCCCC32)cc1[N+](=O)[O-]` (stereo not drawn), the Potency was inconclusive: 29.1 µM [activator, single point].
With `O=C(NC1CCN(C(=S)Nc2ccccc2)CC1)C1CCCCC1` the Potency was inconclusive: 16.4 µM [activator, single point].
With `O=C(O)CCC(=O)c1ccc(-c2ccccc2)cc1` the lipid storage change, negative = inhibition was inconclusive: -1.73%.
With `CNc1sc(C(=O)c2cccs2)c(N)c1-c1nc2ccccc2s1` the lipid storage change, negative = inhibition was inconclusive: 14.7%.
In the case of `CCOC(=O)c1ccc(NC=C2C(=O)OC3(CCCCC3)OC2=O)cc1`, the lipid storage change, negative = inhibition was inconclusive: -2.41%.
For `O=C(Nc1cccc(-c2cccc(Cl)c2)c1)C1CCN(Cc2ccc(CO)o2)CC1`, the Potency was inconclusive: 29.1 µM [activator, single point].
In the case of `O=C1CCN(Cc2ccc(Br)cc2)CCN1CCO`, the lipid storage change, negative = inhibition was inconclusive: -11.3%.
In the case of `Cc1ccc(C(=O)Nc2oc(-c3ccccc3)cc2C#N)cc1`, the Potency was inconclusive: 3.66 µM [activator, partial curve].
In the case of `Oc1ccccc1/C=N/N1CCN(c2ccccn2)CC1`, the lipid storage change, negative = inhibition was inconclusive: 19%.
With `Cc1cc(C(C)(C)C)cc(C)c1C(=O)O` the Potency was inconclusive: 16.4 µM [cytotoxic, partial curve, poor fit].
With `CC(=O)Nc1ccccc1-c1nc2ccc(C(=O)N3CCN(c4cc(C)ccc4C)CC3)cc2[nH]c1=O` the lipid storage change, negative = inhibition was inconclusive: 6.41%.
With `COc1ccccc1N1CCN(c2ccc3ccccc3n2)CC1` the lipid storage change, negative = inhibition was inconclusive: -43.2%.
For `O=C(COC(=O)c1n[nH]c2ccccc12)c1cccc(Br)c1`, the Potency was inconclusive: 1.64 µM [activator, partial curve].
For `CCOC(=O)C1CCN(C(=O)COC(=O)c2ccc3[nH]c4c(c3c2)CCCC4)CC1`, the lipid storage change, negative = inhibition was inconclusive: -62.9%.
For `COC(=O)c1[nH]c2ccccc2c1NC(=O)CN1CCN(Cc2ccc3c(c2)OCO3)CC1`, the lipid storage change, negative = inhibition was inconclusive: 31%.
In the case of `O=c1[nH]c(/C=C\c2ccccc2F)nc(O)c1[N+](=O)[O-]`, the lipid storage change, negative = inhibition was inconclusive: -12.3%.
In the case of `CCCn1nnc(NC(=S)NC(=O)/C=C/c2ccc(Cl)cc2)n1`, the lipid storage change, negative = inhibition was inconclusive: 16.8%.
For `O=C(NCC1COCCO1)c1ccc(OC2CCN(CCc3ccccc3)CC2)cc1` (stereo not drawn), the Potency was inconclusive: 6.51 µM [activator, partial curve].
For `CC(C)(C)[C@H]1C=C(C(=O)N2CCN(Cc3ccccc3)CC2)O[C@@H](OCCCCO)C1`, the lipid storage change, negative = inhibition was inconclusive: -3.32%.
With `COc1cccc(NC(=O)Cc2nnc(SCC(=O)c3ccccc3)n2C)c1` the lipid storage change, negative = inhibition was inconclusive: -34.3%.
In the case of `COc1ccc(/C(C)=N/NC(=O)c2cc(-c3cccnc3)nc3ccccc23)cc1`, the Potency was inconclusive: 0.058 µM [activator, full curve, poor fit].
% is set by controls: 0 for no effect and ±100 for the full control effect; potency is the fitted concentration of half-maximal effect.
